Measured values from PubChem BioAssay AID493014 (National Center for Advancing Translational Sciences (NCATS), 2011).
The other results are listed elsewhere or left out. Shown are side measurements of this screen, not its main read-out; they come without a call. Compounds called inactive in the main read-out are mostly missing here. Potencies come from curve fits of mixed quality, noted in brackets.

Assay: qHTS Assay to Find Inhibitors of Chronic Active B-Cell Receptor Signaling
Details: ABC-DLBCL IkBa-CBG/CBR reporter, luminescence ratio (green luciferase fused to IkBa over red control in TMD8 lymphoma cells), 4 h
Procedure, shortened: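 Doxycycline induced both beetle luciferases in TMD8 lymphoma cells; IKK-driven degradation limits the IkappaBalpha-fused green signal, while red luminescence normalises for cell number and nonspecific effects. Compounds tested up to 46 uM, 4 hrs.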

[1] = measured here: CBR red luminescence, cell number
[2] = measured here: IkBa-CBG green luminescence

| Compound | AC50 [1] | AC50 [2] |
| --- | --- | --- |
| Cc1ccc2n(n1)c(=O)c(Cc1ccccc1)c([O-])[n+]2-c1ccccc1 | 9.2 µM [rising, partial curve] | – |
| COC(=O)c1ccccc1NC(=O)c1cc(-c2ccc(C)cc2)on1 | 16.4 µM [falling, single point] | – |
| Clc1ccc(CCNc2ncnc3nc[nH]c23)cc1 | 2.31 µM [falling, full curve, poor fit] | – |
| N/C(=N\OC(=O)Cc1ccccc1)c1cccnc1 | 6.31 µM [falling, single point] | – |
| O=C(CSc1ccc2ccccc2c1)Nc1nc2ccccc2[nH]1 | 9.2 µM [rising, partial curve] | 4.11 µM [falling, single point] |
| COc1cccc2[nH]c3c(=O)n(CCCN4CCOCC4)cnc3c12 | 7.94 µM [falling, partial curve, poor fit] | – |
| O=C(NCC(c1ccc(F)cc1)N1CCOCC1)c1ccc(OCc2ccccc2)cc1 (stereo not drawn) | 29.1 µM [falling, single point] | – |
| COc1ccc(-n2cnc3sc(-c4ccccc4)cc3c2=O)cc1 | 0.316 µM [rising, full curve, poor fit] | – |
| COc1cccc(NC(=O)COc2ncnc3sc(C)c(C)c23)c1 | 18.4 µM [falling, single point] | – |
| Cc1cccn2c(=O)c(/C=C(\C#N)C(=O)NCc3ccco3)c(N3CCCC(C)C3)nc12 (stereo not drawn) | 29.1 µM [falling, single point] | – |
| CCN(CC)C(=O)COc1cc(C)cc2oc(=O)cc(-c3ccccc3)c12 | 5.01 µM [rising, full curve, poor fit] | – |
| O=C(Nc1ccc(NC(=O)c2ccco2)nc1)c1cccnc1 | 9.2 µM [falling, partial curve] | – |
| Cc1nc2ccccc2c(=O)n1-c1cccc(NS(=O)(=O)c2ccccc2)c1 | 29.1 µM [rising, single point] | – |
| CC(CC1C(C#N)=C(N)OC2=C1C(=O)CCC2)c1ccccc1 (stereo not drawn) | 20.6 µM [falling, single point] | – |
| CC(C)c1nnc(NC(=O)c2sc3ccccc3c2Cl)s1 | 8.91 µM [falling, partial curve, poor fit] | – |
| CC(=O)Nc1sc(N/N=C/c2ccc(O)cc2)nc1-c1ccc(C)cc1 | 0.708 µM [falling, full curve, poor fit] | 5.62 µM [rising, partial curve, poor fit] |
| N/C(=N\OC(=O)Cc1ccccc1)c1ccccc1Cl | 31.6 µM [rising, single point] | – |
| COc1ccccc1C(=O)NC(=O)COC(=O)C1CCC1 | 1.64 µM [rising, full curve] | – |
| O=C(CSc1nc2c(c(=O)n1-c1ccccc1)SCC2)NCC1CCCO1 (stereo not drawn) | 35.5 µM [rising, single point] | – |
| CC(=O)c1c(C)[nH]c(C(=O)OCC(=O)c2ccc3c(c2)NC(=O)CO3)c1C | 5.8 µM [rising, full curve] | – |
| O=C(Nc1ccc(-c2nc3ccc(NC(=O)c4cccs4)cc3[nH]2)cc1)c1cccs1 | 20.6 µM [rising, partial curve] | – |
| Cc1cccc(-n2nnc(C(=O)NCc3ccccn3)c2N)c1 | 20.6 µM [falling, single point] | – |

Part of the list above in order of molar mass, ascending:

| Compound | AC50 [1] | AC50 [2] |
| --- | --- | --- |
| N/C(=N\OC(=O)Cc1ccccc1)c1ccccc1Cl | 31.6 µM [rising, single point] | – |
| Cc1ccc2n(n1)c(=O)c(Cc1ccccc1)c([O-])[n+]2-c1ccccc1 | 9.2 µM [rising, partial curve] | – |
| Cc1cccn2c(=O)c(/C=C(\C#N)C(=O)NCc3ccco3)c(N3CCCC(C)C3)nc12 (stereo not drawn) | 29.1 µM [falling, single point] | – |

More compounds:

| Compound | AC50 [1] | AC50 [2] |
| --- | --- | --- |
| O=C(CSc1ncnc2nc[nH]c12)c1ccccc1 | 18.4 µM [falling, single point] | – |
| O=C(Nc1ccc(F)cc1)c1ccc(-n2cnnc2)cc1 | 22.4 µM [falling, single point] | – |
| Cc1ccc(NC(=O)CN2CCCC2c2cccn2C)cc1C (stereo not drawn) | 20.6 µM [falling, single point] | – |
| CCC(CC)NC(=O)COC(=O)c1ccc(OCc2ccc(C(C)=O)cc2OC)c(OC)c1 | 29.1 µM [rising, single point] | – |
| Cc1ccc(-c2cn3cccnc3n2)cc1NC(=O)c1ccc(Br)o1 | 8.2 µM [rising, partial curve, poor fit] | – |
| COC(=O)c1cc(NC(=O)Nc2cccc(Cl)c2)ccc1Cl | 14.1 µM [falling, single point] | – |
| CC(=O)COC(=O)C1=NN(c2ccccc2)C(=O)CC1 | 1.41 µM [rising, partial curve, poor fit] | – |
| C=CCSc1ncnc2c1oc1nc3c(cc12)COC(C)(C)C3 | 6.31 µM [rising, single point] | – |
| COC(=O)c1ccc(CSc2nc3c(cnn3-c3ccccc3)c(=O)[nH]2)o1 | 11.6 µM [rising, partial curve] | – |
| O=C(O)c1ccccc1-c1cn2cc(Cl)ccc2n1 | 22.4 µM [falling, single point] | – |
| CCOC(=O)N1CCN(C(=O)CCl)CC1 | 35.5 µM [falling, single point] | – |
| Cc1ccnc(NC(=S)NC(=O)/C=C/c2ccco2)c1 | 9.2 µM [falling, partial curve] | – |
| O=C(NCc1ccc(Cl)cc1)c1ccccc1Oc1ccccc1 | 35.5 µM [falling, single point] | – |
| Clc1c(-c2ccccc2)nnn1-c1ccccc1 | 3.66 µM [rising, partial curve, poor fit] | – |
| Cc1ccc(/C=C/C(=O)Nc2nnc(C)s2)o1 | 0.82 µM [rising, partial curve, poor fit] | – |
| Cc1cc(C)nc(SCC(=O)c2ccc(F)c(C)c2)n1 | 3.98 µM [rising, full curve, poor fit] | – |
| COc1cccc2cc(C(=O)N3CCCCC3C)c(=O)oc12 (stereo not drawn) | 29.1 µM [rising, single point] | – |
| O=C(CSc1ccccc1)Nc1ccc(N2CCOCC2)cc1 | 18.4 µM [rising, single point] | – |
| Cc1cc(C)c(N)c(C(=O)O)c1 | 14.1 µM [rising, single point] | – |
| CC(C)/C=N/Nc1nc2c(c(=O)n(C)c(=O)n2C)n1C | 35.5 µM [falling, single point] | – |
| COC(=O)N/N=C/c1cccc(OCCSc2ccc(Cl)cc2)c1 | 29.1 µM [falling, single point] | – |
| CC12CNCC(C)(CN(C3(O)C(=O)Nc4ccc(Br)cc43)C1)C2=O (stereo not drawn) | – | 25.1 µM [falling, single point] |

| Compound | AC50 [1] | AC50 [2] |
| --- | --- | --- |
| O=C(Nc1ccc2c(c1)CCC2)Nc1ccccc1F | 2.24 µM [falling, partial curve] | – |
| O=C(NC1CCN(Cc2ccccc2)CC1)c1ccc2c(c1)OCCCO2 | 22.4 µM [rising, single point] | – |
| O=C(NCCCCc1ccccc1)c1ccccc1Cl | 7.08 µM [falling, partial curve, poor fit] | – |
| COC(=O)c1cc(NC(=O)COC(=O)CCc2nc3ccccc3c(=O)[nH]2)cc(C(=O)OC)c1 | 0.731 µM [rising, full curve, poor fit] | – |
| O=C(NCC1CCCO1)c1cccc(Oc2ccc([N+](=O)[O-])cc2Cl)c1 (stereo not drawn) | 5.62 µM [falling, partial curve] | – |
| COc1cccc(-c2ncc3ccccc3c2COC(=O)c2cccs2)c1 | 5.17 µM [falling, partial curve] | – |
| CCOC(=O)CC(NC(=O)c1ccco1)c1ccc(C)cc1 (stereo not drawn) | 35.5 µM [rising, single point] | – |
| O=C(CNC(=O)c1cccs1)c1ccc(Cl)cc1 | 11.2 µM [falling, partial curve, poor fit] | – |
| C#CCOCCOCCOCCNc1nc(N2CCN(C(=O)CCCCCCCCCCNC(=O)[C@@H](CCC(=O)O)n3cc(CCCCCN)nn3)CC2)nc(N2CCN(C(=O)CCCCCCCCCCNC(=O)[C@H](CO)n3cc(CCCSC)nn3)CC2)n1 | 4.11 µM [rising, partial curve, poor fit] | – |
| Cn1c(=O)n(C)c2cc(NS(=O)(=O)c3ccc4c(c3)CCCC4)ccc21 | 20.6 µM [rising, partial curve] | 20.6 µM [falling, single point] |
| O=C(c1cccc(Br)c1)c1conc1C(=O)c1ccco1 | 29.1 µM [rising, single point] | – |
| CCOC(=O)c1ccc(NC(=O)CN2CCN(c3ccccc3)CC2)cc1 | 0.146 µM [rising, full curve, poor fit] | – |
| COc1ccc2cc(S(=O)(=O)N3CCCC3)ccc2c1 | 35.5 µM [rising, single point] | – |
| COc1ccc(OC)c(-c2cc(C(=O)NCCCn3ccnc3)no2)c1 | – | 11.2 µM [falling, partial curve, poor fit] |
| O=C1NC(=O)C(c2ccccc2[N+](=O)[O-])=C1Nc1ccc(O)c(Cl)c1 | 11.2 µM [falling, single point] | – |
| O=C(/C=C/c1ccco1)Nc1scc(-c2ccccc2)c1C(=O)O | 10 µM [falling, partial curve] | – |
| CC(C)(C)C(=O)Nc1ccc(S(=O)(=O)Nc2nccs2)cc1 | 11.2 µM [rising, single point] | – |
| COc1cccc(NC(=O)CSc2nc(C3CC3)nc3ccccc23)c1 | 2 µM [falling, partial curve, poor fit] | – |
| O=C(Nc1ccc2c(c1)nc1n2CCOC1)c1ccccc1 | 10 µM [falling, partial curve, poor fit] | – |
| Cc1ccc(N(CC(=O)NCCc2ccc(F)cc2)S(=O)(=O)c2ccc(Cl)c([N+](=O)[O-])c2)c(C)c1 | 20.6 µM [falling, single point] | – |
| O=C1CC(N2CCN(S(=O)(=O)c3ccccc3)CC2)C(=O)N1c1ccccc1 (stereo not drawn) | 6.31 µM [falling, full curve, poor fit] | – |
